Measured data: PubChem BioAssay AID1259264 (Sanger Institute, 2017)
This is one part, drawn at random, of 794 deposited reagents. Over the whole deposit, 15 (1.9%) got an active call. 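Calls rest on knock-down alone at z-score below -3; synergy scores with the three drugs do not decide them.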 Entries without a mark were called inactive. Viability is capped at 1. Not all columns of the deposit are shown. The record does not give: the amount of reagent, the time to read-out.

Aim: 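Kinase-wide knock-down to find genes that strengthen targeted drug effects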 (primary screen)
Cells: CL40 human colorectal cancer cells
Reagents: siRNA pool against human genes
Challenge: DMSO, or an anchor drug: BYL719 at 1 µM, cetuximab at 5 µg/ml, or trametinib at 10 nM
Measurement: 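Replicate-mean viability versus a non-targeting pool, robust z-score from control wells, and mean synergy with BYL719 1 µM, cetuximab 5 µg/ml or trametinib 10 nM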
Scale: robust z-score, siRNA alone and viability, siRNA alone: higher = more viable cells
Units: viability, siRNA alone in fraction of control
Call rule: 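Essential call: siRNA with no drug reaches a robust z under -3 (low cell count); drug synergy scores do not affect it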
Calls: active = essential (lowers viability alone); inactive = not essential

PFKM
- robust z-score, siRNA alone: 0.533
- viability, siRNA alone: 1

ITK
- robust z-score, siRNA alone: 0.0893
- viability, siRNA alone: 0.968

CDK19
- robust z-score, siRNA alone: -0.739
- viability, siRNA alone: 0.908

CAMKK1
- robust z-score, siRNA alone: 0.28
- viability, siRNA alone: 0.981

NEK6
- robust z-score, siRNA alone: 0.539
- viability, siRNA alone: 1

BRSK2
- robust z-score, siRNA alone: 0.333
- viability, siRNA alone: 0.985

PHKA1
- robust z-score, siRNA alone: 0.539
- viability, siRNA alone: 1

TYK2
- robust z-score, siRNA alone: 0.539
- viability, siRNA alone: 1

NADK
- robust z-score, siRNA alone: 0.539
- viability, siRNA alone: 1

IRAK1
- robust z-score, siRNA alone: -0.0735
- viability, siRNA alone: 0.956

NRAS
- robust z-score, siRNA alone: 0.539
- viability, siRNA alone: 1

PI4KA
- robust z-score, siRNA alone: 0.539
- viability, siRNA alone: 1

PRPS2
- robust z-score, siRNA alone: 0.539
- viability, siRNA alone: 1

JAK1
- robust z-score, siRNA alone: 0.539
- viability, siRNA alone: 1

Part of the list above in another layout.
target gene | robust z-score, siRNA alone | viability, siRNA alone
NADK | 0.539 | 1
IRAK1 | -0.0735 | 0.956

The listing continues:
NLK
- robust z-score, siRNA alone: -0.0578
- viability, siRNA alone: 0.957

APC
- robust z-score, siRNA alone: -0.686
- viability, siRNA alone: 0.912

FGFR4
- robust z-score, siRNA alone: -0.0716
- viability, siRNA alone: 0.956

BRAF
- robust z-score, siRNA alone: -2.64
- viability, siRNA alone: 0.772

PAK6
- robust z-score, siRNA alone: 0.539
- viability, siRNA alone: 1

ASPM
- robust z-score, siRNA alone: 0.539
- viability, siRNA alone: 1

NUAK2
- robust z-score, siRNA alone: 0.539
- viability, siRNA alone: 1

CDK10
- robust z-score, siRNA alone: -0.442
- viability, siRNA alone: 0.93

PBK
- robust z-score, siRNA alone: 0.539
- viability, siRNA alone: 1

KCNH2
- robust z-score, siRNA alone: 0.539
- viability, siRNA alone: 1

NEK11
- robust z-score, siRNA alone: -0.175
- viability, siRNA alone: 0.949

PFKP
- robust z-score, siRNA alone: -0.00919
- viability, siRNA alone: 0.961

CAMK1G
- robust z-score, siRNA alone: 0.178
- viability, siRNA alone: 0.974

EIF2AK2
- robust z-score, siRNA alone: 0.539
- viability, siRNA alone: 1
